Source: patent publication US20210347821A1
Results are given in words; binding and its absence hold for the method and conditions named. In cells and extracts the contact can be indirect. Some binding calls cover weakened binding; strength is not graded here.

Target: GluA2 subunit of the AMPA receptor (endogenous, mouse spinal cord) (mouse), P23819
Assay: co-IP and immunoblot, mouse spinal cord lysates
Conditions: remark: other sources report otherwise

binding: binds
B1: PICK1 (endogenous, mouse spinal cord), Q62083 1-416 (protein, UniProt Q62083 1-416, looked up)
chain: MFADLDYDIEEDKLGIPTVPGKVTLQKDAQNLIGISIGGGAQYCPCLYIVQVFDNTPAALDGTVAAGDEITGVNGKSIKGKTKVEVAKMIQEVKGEVTIHYNKLQADPKQGMSLDIVLKKVKHRLVENMSSGTADALGLSRAILCNDGLVKRLEELERTAELYKGMTEHTKNLLRAFYELSQTHRAFGDVFSVIGVREPQPAASEAFVKFADAHRSIEKFGIRLLKTIKPMLTDLNTYLNKAIPDTRLTIKKYLDVKFEYLSYCLKVKEMDDEEYSCIGPRRALYRVSTGNYEYRLILRCRQEARARFSQMRKDVLEKMELLDQKHVQDIVFQLQRFVSTMSKYYNDCYAVLQDADVFPIEVDLAHTTLAYGPNQGSFTDGEEEDEEEEDGAAREVSKDACGATGPTDKGGSWCDS
